Results are given in words; binding and its absence hold for the method and conditions named. In cells and extracts the contact can be indirect. Binding calls can cover weak binding; strength is not graded here.

By UniProt entry, the sequences of proteins in these tests, tags left out. Where a name states a change or a piece, a line headed by the entry shows the natural chain unless it says otherwise.
UniProt Q03267: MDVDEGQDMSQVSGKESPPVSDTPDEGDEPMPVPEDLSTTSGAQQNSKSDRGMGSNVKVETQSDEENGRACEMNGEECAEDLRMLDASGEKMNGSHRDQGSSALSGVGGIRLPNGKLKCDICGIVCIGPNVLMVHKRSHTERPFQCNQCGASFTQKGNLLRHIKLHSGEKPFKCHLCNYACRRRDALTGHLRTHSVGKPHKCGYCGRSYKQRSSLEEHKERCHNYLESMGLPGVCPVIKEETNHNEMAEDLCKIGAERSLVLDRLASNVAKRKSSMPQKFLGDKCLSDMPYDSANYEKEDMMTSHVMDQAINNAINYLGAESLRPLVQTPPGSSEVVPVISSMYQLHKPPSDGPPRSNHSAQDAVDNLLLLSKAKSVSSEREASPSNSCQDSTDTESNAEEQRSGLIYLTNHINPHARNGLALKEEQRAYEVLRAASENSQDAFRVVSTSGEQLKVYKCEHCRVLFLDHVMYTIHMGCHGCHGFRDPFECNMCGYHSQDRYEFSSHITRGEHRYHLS

The experiment concerns the target Flag-HA-tagged murine Ikaros1ΔPP1 (FH-Ik1ΔPP1), in 293T (mouse) (UniProt Q03267). Kind of experiment: co-IP; total cell lysates of 293T cells transiently transfected with FH-Ik1, FH-Ik1ΔPP1 or empty vector; IP with FLAG antibodies, blots for IKAROS, Mi2, CDK9, CYCLIN T1, MTA2.

As to “CDK9 (endogenous, 293T) (from UniProt P50750 1-372) (enzyme)”, the binding entry is “binds”.
